We go through 1 molecule from PMC11377297, “Mechanical disengagement of the cohesin ring” (Nature Structural & Molecular Biology, 2023).

These are yes or no findings as the source states them, for the method shown. Some results given as binding are weak or reduced against the parent protein; the word gives no strength.

The assay addresses T1, Scc1^Rad21 kleisin subunit of the fission yeast cohesin tetramer (fission yeast) (UniProt P30776).
T1 sequence: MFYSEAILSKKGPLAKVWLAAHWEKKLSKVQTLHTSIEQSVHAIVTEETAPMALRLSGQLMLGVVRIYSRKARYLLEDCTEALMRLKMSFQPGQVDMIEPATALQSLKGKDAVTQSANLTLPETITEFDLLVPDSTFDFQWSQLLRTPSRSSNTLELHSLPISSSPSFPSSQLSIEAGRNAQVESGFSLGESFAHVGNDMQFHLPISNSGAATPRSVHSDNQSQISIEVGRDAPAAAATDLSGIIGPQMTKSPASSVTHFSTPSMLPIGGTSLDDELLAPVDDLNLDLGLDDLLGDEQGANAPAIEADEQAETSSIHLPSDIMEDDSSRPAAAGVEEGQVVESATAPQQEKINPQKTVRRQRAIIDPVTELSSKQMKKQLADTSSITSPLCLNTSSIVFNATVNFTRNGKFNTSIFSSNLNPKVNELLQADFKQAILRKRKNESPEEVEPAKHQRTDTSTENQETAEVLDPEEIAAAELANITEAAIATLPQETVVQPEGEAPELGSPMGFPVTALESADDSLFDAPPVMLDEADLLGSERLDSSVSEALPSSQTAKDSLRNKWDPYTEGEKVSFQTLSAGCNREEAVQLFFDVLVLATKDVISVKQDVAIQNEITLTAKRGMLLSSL
Nature of the assay: co-purification of the recombinant complex (SDS-PAGE, Coomassie); purified cohesin complex resolved by SDS-PAGE; purification methods in the Supplementary Information.

B1: Scc3^Psc3 subunit of the fission yeast cohesin tetramer (protein, UniProt O13816 1-962)
chain: MSESVTTGSDDDGGDRESSPVMLSQSFDPMSSSSNSSSEENSDDDYEKTISSKKRHPRPNSKGVNVKRSRRNAIVEEDPQEEIFNNLFAFLLDQKVDTMDIAVSWFADYAKDNQSALANLINFILKCCGCNRAINVFDVQDQDSASATLSQIQLSVERTSTRDYPLNSKNLKFRNFRKRLTGLLSNFVSQLSIRNYLYNSTVFEDIMSWVVAMSSSTMRPIRHTATVFCLNIMTFLCEKSKELLNEHAIATKQLEKEEKRSRVNRNRINELNNSLGEIVKQQDTLTTYLNDYFDSVFVHRYRDVEPKIRVDCLQELGVWINTVPSIFFSGSYLRYLGWMLSDINTTVRLTVVKVLRKFFETDSFIGGLRHFSSRFKERILEMSCVDADIGVRVASIRLCNAMRTCGFLENSEILKVLKLILDINPRVQREAVLFLCKVVDESVNEKIDLWGEEDYILKAFSQTSLTTFSVHWIKFSQMCKLLEEVRLSYQSSFDYDTLLRIFQKNGNFITPITQALLNACEIDSIYQSWEDISNFVLFDNYTSTLKDPIDSILSFCKLNDFQESILLQLLSASIQTVCNNNFITPKTVHNKQAAETTNDQNKDKDLLYLNLLPYINSITERNSASPTLLHDSLRLLFSMDLTEMTDPQLSRHFELLINNLKKFFLTNNDLQIIQGCTILFLRLDSIPALKEDLKLLVTDICDQTVTEFLKNFGSFNIQDAVITKDEFVIFEACLTRIEGCTSLKDFSDYPEFDIIYERLVSLLSRVPNSYEDTLKFSAINTLQSLLFWFFLRKDNPADEEKKKDDETKVFNCLINIMNNDSSKILQLQAARTFLETVIMKEGVKASHYNDDNRVSEEHNFLKPQFLDALLKILEGWLYTYAKVGQFPFKRLTQASSPHTQISLDKNPLNRRLLEHVCCDLTSKLLIVVSLSNTITPEFSQQFCELRGHYGPKLSAIVDEFLN
Take B1: the binding result is listed as “binds”.
